Taken from: PubChem BioAssay AID1224828 (NIAID, 2016)
In all, the deposit lists about 17,000 reagents; shown is a random part of them. 762 of all reagents (4.5%) were called active. 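Active calls include both raised and lowered p65 entry, mostly lowered; wells with fewer than 50 cells lack a z-score.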 Raw values vary from plate to plate and are shown uncorrected.

Purpose: 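Find genes required for NF-kappaB p65 moving into the nucleus after LPS in mouse macrophages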 (primary screen)
Cell system: mouse RAW264.7 G9 macrophage reporter cells (GFP-p65, Tnf promoter-mCherry)
Knock-down reagent: siRNA pool against mouse genes, 100 nM
Time to read-out: 2 days siRNA transfection, then 40 min LPS before fixation
Challenge: LPS (Salmonella minnesota R595) at 10 ng/ml
Measured: 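Imaged p65 nuclear translocation ratio, normalised to the plate median, converted to robust z-scores and averaged across two replicates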
Scale: p65 translocation robust z-score: higher = more nuclear NF-kappaB p65 after LPS than the plate median; nuclear/cytoplasmic p65 ratio: higher = more nuclear NF-kappaB p65
Rule for the call: 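Called active when z exceeds 3.3 or falls under -1.56 (median of Tlr4 controls), giving activity score of at least 50; no calls for control wells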
Calls: active = hit (p65 shift raised or lowered); inactive = no clear change

Gene,p65 translocation robust z-score,"nuclear/cytoplasmic p65 ratio, rep 1","nuclear/cytoplasmic p65 ratio, rep 2",low cell count flag,Call
Alox12 (arachidonate 12-lipoxygenase),-0.81,1.52,1.52,enough cells to score,inactive
Klhl6 (kelch-like 6),,1.33,1.46,fewer than 50 cells per well; well left out of scoring,inactive
"Cyp2c55 (cytochrome P450, family 2, subfamily c, polypeptide 55)",-0.53,1.39,1.32,enough cells to score,inactive
Nacc1,-0.07,1.61,1.59,enough cells to score,inactive
C2cd2 (C2 calcium-dependent domain containing 2),0.22,1.46,1.42,enough cells to score,inactive
"Cacna1h (calcium channel, voltage-dependent, T type, alpha 1H subunit)",0.02,1.56,1.67,enough cells to score,inactive
"Atg4d (autophagy related 4D, cysteine peptidase)",1.11,1.7,1.74,enough cells to score,inactive
Dmtf1l (cyclin D binding myb like transcription factor 1 like),,1.35,1.16,fewer than 50 cells per well; well left out of scoring,inactive
Max (Max protein),0.33,1.54,1.34,enough cells to score,inactive
"Cby1 (chibby family member 1, beta catenin antagonist)",1.29,1.68,1.36,enough cells to score,inactive
Pex6 (peroxisomal biogenesis factor 6),0.38,1.53,1.43,enough cells to score,inactive
Nkrf (NF-kappaB repressing factor),-0.02,1.35,1.54,enough cells to score,inactive
Hoxa9 (homeobox A9),0.14,1.39,1.45,enough cells to score,inactive
Foxo4 (forkhead box O4),-0.07,1.44,1.33,enough cells to score,inactive
Mdm4 (MDM4 regulator of p53),-0.52,1.29,1.36,enough cells to score,inactive
Cmtm4 (CKLF-like MARVEL transmembrane domain containing 4),0.62,1.68,1.89,enough cells to score,inactive
Specc1l,,1.28,1.97,fewer than 50 cells per well; well left out of scoring,inactive
Oma1 (OMA1 zinc metallopeptidase),,1.36,1.15,fewer than 50 cells per well; well left out of scoring,inactive
Mcts2 (malignant T cell amplified sequence 2),,1.35,1.27,fewer than 50 cells per well; well left out of scoring,inactive
Eps8l3 (EPS8-like 3),-0.25,1.49,1.49,enough cells to score,inactive
Ephb3 (Eph receptor B3),1,1.91,1.46,enough cells to score,inactive
Or4c118 (olfactory receptor family 4 subfamily C member 118),0.79,1.85,1.63,enough cells to score,inactive
Kmt5a (lysine methyltransferase 5A),0.53,1.73,1.65,enough cells to score,inactive
Pimreg (PICALM interacting mitotic regulator),-0.2,1.58,1.59,enough cells to score,inactive

Sorted by “nuclear/cytoplasmic p65 ratio, rep 2” (ascending): 3 of the entries above.
Gene,p65 translocation robust z-score,"nuclear/cytoplasmic p65 ratio, rep 1","nuclear/cytoplasmic p65 ratio, rep 2",low cell count flag,Call
Dmtf1l (cyclin D binding myb like transcription factor 1 like),,1.35,1.16,fewer than 50 cells per well; well left out of scoring,inactive
Max (Max protein),0.33,1.54,1.34,enough cells to score,inactive
"Atg4d (autophagy related 4D, cysteine peptidase)",1.11,1.7,1.74,enough cells to score,inactive
